Measured values: the supplement of paper PMC11732987, “Enantioselective OTUD7B fragment discovery through chemoproteomics screening and high-throughput optimisation” (Communications Chemistry, 2025)
This is one part of the list. The data scatter; read single values as rough.

Amino acid sequences for entries named in this document (tags omitted). A change or cut given only in a name is not applied to a line headed by its entry. Residues count along the entry.
UniProt Q66LE6: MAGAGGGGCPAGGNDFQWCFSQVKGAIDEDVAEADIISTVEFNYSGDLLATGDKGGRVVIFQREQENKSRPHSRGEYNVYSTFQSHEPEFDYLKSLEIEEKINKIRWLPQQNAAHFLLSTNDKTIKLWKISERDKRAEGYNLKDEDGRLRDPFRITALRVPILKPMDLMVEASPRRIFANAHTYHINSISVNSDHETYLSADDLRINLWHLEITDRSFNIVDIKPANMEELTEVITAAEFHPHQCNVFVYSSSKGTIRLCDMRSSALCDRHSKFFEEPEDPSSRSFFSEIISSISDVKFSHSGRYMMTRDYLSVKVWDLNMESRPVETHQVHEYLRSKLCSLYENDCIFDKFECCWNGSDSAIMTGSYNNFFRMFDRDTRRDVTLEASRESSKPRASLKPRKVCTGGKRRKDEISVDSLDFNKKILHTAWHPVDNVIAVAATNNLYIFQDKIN
UniProt Q8NAV1: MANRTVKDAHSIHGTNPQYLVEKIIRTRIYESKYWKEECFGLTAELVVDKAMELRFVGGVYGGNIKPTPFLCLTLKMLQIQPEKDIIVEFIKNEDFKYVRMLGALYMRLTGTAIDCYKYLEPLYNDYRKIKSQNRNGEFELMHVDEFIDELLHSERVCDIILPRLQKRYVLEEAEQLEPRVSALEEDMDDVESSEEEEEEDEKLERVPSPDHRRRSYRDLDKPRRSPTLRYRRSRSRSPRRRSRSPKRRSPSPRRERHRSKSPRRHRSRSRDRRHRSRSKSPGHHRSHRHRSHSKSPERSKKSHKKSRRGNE
UniProt Q13162, 46-66: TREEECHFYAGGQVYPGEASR
UniProt Q06830, 169-190: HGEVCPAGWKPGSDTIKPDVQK
UniProt P13861, whole entry, looked up: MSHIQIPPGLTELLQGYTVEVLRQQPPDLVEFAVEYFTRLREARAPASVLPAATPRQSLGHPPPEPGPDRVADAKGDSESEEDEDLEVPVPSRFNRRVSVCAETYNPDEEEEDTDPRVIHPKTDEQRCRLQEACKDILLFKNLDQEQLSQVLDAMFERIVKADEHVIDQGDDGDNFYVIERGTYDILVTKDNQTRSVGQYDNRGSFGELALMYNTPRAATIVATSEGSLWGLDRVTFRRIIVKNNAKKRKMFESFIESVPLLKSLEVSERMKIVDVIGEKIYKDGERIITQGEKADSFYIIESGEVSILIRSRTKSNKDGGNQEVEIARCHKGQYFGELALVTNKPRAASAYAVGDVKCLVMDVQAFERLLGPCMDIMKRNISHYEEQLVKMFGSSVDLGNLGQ
UniProt P30405: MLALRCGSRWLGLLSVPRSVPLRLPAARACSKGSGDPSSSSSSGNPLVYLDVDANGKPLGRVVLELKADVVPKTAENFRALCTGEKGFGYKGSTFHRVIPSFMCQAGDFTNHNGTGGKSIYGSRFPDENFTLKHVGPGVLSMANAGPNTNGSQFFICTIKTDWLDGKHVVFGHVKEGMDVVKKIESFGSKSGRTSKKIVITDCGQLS
UniProt O75170: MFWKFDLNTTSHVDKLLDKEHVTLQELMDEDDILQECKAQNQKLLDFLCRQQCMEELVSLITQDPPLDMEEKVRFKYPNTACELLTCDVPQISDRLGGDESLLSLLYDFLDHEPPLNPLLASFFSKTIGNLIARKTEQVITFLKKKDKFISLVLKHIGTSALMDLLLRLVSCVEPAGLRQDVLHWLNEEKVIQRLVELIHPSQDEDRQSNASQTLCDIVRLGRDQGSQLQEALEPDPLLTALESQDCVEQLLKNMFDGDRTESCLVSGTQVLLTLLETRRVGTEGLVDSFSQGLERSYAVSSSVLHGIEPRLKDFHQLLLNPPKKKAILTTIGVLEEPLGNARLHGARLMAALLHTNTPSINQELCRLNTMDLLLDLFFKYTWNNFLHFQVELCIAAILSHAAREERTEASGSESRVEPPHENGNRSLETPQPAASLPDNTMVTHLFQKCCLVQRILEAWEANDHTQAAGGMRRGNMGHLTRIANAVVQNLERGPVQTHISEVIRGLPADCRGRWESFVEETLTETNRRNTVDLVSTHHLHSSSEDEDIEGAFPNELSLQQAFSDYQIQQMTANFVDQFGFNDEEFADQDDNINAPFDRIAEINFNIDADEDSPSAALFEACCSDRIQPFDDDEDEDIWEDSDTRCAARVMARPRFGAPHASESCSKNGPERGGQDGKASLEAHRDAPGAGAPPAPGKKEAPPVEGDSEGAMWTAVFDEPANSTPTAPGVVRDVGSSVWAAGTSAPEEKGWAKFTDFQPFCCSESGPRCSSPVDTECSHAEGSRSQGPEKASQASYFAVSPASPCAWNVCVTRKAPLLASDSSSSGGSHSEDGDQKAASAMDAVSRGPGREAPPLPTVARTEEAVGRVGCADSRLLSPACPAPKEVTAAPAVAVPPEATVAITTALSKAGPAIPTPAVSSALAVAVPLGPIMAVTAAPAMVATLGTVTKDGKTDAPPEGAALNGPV
UniProt Q8TAP8: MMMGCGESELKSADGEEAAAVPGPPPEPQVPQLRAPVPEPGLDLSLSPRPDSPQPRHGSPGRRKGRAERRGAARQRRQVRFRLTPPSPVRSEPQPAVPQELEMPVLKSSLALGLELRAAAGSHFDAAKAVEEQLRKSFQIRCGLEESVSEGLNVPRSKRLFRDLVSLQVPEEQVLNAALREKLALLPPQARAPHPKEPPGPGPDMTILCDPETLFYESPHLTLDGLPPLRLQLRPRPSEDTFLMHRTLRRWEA
UniProt Q8TF05: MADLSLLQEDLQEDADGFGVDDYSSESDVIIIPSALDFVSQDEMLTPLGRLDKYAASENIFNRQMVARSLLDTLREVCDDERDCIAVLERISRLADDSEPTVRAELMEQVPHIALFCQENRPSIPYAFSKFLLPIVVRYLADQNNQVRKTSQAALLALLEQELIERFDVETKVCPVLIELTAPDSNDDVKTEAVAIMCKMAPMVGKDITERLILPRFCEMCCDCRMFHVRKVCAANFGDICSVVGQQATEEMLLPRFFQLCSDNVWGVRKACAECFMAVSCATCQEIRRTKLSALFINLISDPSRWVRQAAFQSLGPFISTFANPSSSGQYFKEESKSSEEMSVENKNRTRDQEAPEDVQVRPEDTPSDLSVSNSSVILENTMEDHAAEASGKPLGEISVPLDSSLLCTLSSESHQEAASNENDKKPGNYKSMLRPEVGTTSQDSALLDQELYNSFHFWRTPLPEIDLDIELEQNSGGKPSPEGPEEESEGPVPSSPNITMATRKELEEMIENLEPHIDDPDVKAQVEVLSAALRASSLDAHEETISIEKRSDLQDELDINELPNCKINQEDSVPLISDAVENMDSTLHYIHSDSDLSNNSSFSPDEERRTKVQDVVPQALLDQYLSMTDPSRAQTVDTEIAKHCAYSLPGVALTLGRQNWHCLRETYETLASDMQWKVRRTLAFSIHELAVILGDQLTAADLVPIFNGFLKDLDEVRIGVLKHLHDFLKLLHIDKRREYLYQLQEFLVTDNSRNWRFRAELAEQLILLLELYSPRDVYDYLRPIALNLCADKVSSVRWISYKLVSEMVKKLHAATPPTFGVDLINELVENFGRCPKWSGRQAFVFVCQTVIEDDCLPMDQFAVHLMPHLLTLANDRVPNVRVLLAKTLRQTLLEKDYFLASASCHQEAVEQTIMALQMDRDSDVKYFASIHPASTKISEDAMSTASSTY
UniProt O15355: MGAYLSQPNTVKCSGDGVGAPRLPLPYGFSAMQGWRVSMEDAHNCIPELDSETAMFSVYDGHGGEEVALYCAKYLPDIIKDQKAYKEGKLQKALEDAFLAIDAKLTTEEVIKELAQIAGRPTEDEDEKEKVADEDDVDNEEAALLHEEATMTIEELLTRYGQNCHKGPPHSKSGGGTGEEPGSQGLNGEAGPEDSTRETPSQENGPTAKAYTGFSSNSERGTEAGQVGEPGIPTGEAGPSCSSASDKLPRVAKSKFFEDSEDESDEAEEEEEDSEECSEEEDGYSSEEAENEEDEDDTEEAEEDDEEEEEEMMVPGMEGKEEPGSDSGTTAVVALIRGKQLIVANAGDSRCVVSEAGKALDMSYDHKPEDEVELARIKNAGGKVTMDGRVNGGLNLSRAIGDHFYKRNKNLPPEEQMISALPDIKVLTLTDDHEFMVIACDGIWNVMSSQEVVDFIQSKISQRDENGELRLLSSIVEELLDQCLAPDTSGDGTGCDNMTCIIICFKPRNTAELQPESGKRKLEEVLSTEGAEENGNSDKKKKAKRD
UniProt O43663, 75-101: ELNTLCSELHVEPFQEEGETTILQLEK
UniProt O94906: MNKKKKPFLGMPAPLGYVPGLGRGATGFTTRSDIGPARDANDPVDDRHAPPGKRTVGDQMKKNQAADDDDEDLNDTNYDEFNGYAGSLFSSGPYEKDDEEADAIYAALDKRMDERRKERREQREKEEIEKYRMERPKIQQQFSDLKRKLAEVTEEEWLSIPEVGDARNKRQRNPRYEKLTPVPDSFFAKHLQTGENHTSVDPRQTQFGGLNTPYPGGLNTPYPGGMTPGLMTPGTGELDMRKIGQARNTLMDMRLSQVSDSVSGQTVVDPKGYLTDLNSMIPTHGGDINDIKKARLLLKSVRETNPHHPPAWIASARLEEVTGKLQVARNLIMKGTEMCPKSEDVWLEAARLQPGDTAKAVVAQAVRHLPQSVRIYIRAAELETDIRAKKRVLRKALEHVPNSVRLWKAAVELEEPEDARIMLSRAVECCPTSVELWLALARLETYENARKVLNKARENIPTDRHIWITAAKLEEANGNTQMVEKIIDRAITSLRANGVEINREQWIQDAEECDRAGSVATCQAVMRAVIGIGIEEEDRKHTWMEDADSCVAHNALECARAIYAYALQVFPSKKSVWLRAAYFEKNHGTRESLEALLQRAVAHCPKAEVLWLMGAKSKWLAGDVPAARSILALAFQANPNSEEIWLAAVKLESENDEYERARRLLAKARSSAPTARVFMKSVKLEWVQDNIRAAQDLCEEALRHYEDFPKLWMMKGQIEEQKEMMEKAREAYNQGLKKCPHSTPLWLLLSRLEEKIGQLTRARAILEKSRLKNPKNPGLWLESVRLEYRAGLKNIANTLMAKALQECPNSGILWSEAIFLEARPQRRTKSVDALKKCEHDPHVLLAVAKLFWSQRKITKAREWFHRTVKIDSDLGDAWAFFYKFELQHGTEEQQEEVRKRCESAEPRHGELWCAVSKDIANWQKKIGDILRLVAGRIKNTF
UniProt O43447: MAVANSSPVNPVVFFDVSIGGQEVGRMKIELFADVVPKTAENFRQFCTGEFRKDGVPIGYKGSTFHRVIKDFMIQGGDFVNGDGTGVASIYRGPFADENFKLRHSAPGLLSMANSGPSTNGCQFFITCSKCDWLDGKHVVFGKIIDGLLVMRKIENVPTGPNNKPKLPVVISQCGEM
UniProt Q9Y570: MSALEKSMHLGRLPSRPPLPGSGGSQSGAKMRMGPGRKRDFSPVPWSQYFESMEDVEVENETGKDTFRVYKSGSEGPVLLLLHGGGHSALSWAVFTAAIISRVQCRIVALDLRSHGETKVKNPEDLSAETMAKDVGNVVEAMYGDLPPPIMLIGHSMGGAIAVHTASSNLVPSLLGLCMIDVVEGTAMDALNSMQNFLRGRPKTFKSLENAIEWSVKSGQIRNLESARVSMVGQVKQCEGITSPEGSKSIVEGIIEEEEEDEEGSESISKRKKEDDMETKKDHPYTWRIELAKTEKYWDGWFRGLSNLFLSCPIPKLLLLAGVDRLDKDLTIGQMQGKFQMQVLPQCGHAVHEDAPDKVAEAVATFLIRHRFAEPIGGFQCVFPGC
UniProt Q5H9R7: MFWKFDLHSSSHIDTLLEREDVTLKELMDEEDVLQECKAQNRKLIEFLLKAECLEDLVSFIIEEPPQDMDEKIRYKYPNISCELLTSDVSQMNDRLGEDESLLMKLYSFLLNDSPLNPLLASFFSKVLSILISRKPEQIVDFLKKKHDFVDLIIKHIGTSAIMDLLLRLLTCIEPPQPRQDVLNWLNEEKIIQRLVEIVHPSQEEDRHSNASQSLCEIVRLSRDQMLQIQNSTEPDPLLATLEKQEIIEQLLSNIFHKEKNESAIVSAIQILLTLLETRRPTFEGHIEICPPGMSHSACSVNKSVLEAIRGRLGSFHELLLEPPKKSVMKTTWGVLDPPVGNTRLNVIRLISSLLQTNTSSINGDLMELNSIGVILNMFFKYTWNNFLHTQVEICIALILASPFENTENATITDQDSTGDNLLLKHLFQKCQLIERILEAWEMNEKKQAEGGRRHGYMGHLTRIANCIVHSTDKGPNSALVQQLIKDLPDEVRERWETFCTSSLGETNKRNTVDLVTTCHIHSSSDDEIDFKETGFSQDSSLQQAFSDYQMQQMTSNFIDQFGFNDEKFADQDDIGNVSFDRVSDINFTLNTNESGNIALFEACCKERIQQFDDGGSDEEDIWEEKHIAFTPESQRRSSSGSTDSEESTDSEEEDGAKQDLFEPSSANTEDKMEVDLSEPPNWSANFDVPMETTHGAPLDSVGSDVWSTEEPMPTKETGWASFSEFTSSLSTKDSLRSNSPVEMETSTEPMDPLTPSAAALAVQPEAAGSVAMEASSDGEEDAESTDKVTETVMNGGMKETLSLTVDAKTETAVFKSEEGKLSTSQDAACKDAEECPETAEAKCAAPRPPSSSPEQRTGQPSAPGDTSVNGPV

What follows are targets tested with ClCC(=O)N[C@@H]1CCCc2ccccc12 (assay: log2 mean competition ratio of IA-DTB cysteine labelling (DMSO/compound) (log2 ratio); higher = stronger cysteine engagement by compound). Settings: 50 µM; treatment time: 4 h; cell line lysate: HEK293T.
Method: (§1)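 IA-DTB competitive cysteine chemoproteomics in HEK293T RIPA lysate. Lysates were treated with compound 29 or 30 at 50 or 200 µM for 4 h, then IA-DTB (500 µM, 1 h), trypsin-digested, NeutrAvidin-enriched and analysed by diaPASEF. Competition ratio = intensity DMSO / intensity compound (n=4 treated, n=64 DMSO); binding: mean log2 CR ≥ 1 and p ≤ 0.05 plus QC filters. Target is the cysteine site.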
In the case of PPP2R2D C268 (UniProt Q66LE6), the “log2 mean competition ratio” value is reported as -0.131. PPP1R37 C124 (UniProt O75864) was tested, and the “log2 mean competition ratio” value was 0.0367. With PRDM6 C426 the “log2 mean competition ratio” value was -0.0681. With PRDM16 C113 the “log2 mean competition ratio” value was 0.434. In the case of PRKDC C1742 (UniProt P78527), the “log2 mean competition ratio” value is reported as 0.0695. PRPF38A C116 (UniProt Q8NAV1) was tested, and the “log2 mean competition ratio” value was -0.00337. For PREP C25, the “log2 mean competition ratio” value was 0.216. With PRKDC C4061 (UniProt P78527) the “log2 mean competition ratio” value was 0.186. For PRDX4 C51 (UniProt Q13162), the “log2 mean competition ratio” value was -0.129. In the case of PRDX1 C173 (UniProt Q06830), the “log2 mean competition ratio” value is reported as 0.0595. POLR3E C350 (UniProt Q9NVU0) was tested, and the “log2 mean competition ratio” value was 0.055. In the case of PPP1R3D C26 (UniProt O95685), the “log2 mean competition ratio” value is reported as 0.114. In the case of POLR2B C945 (UniProt P30876), the “log2 mean competition ratio” value is reported as 0.262. In the case of PRMT7 C262 (UniProt Q9NVM4), the “log2 mean competition ratio” value is reported as -0.00381. With PRKAR2A C374 (UniProt P13861) the “log2 mean competition ratio” value was 0.275. With PPIF C203 (UniProt P30405) the “log2 mean competition ratio” value was -0.527. In the case of POLR2A C1287, the “log2 mean competition ratio” value is reported as -0.156. For PPP6R2 C49 (UniProt O75170), the “log2 mean competition ratio” value was 0.0807. For POMT2 C21 (UniProt Q9UKY4), the “log2 mean competition ratio” value was 0.104. With PPP1R35 C142 (UniProt Q8TAP8) the “log2 mean competition ratio” value was -0.128. For PPP4R1 C174 (UniProt Q8TF05), the “log2 mean competition ratio” value was 0.066. PPM1G C164 (UniProt O15355) was tested, and the “log2 mean competition ratio” value was 0.585. In the case of PRC1 C80 (UniProt O43663), the “log2 mean competition ratio” value is reported as -0.65. In the case of PRPF6 C604 (UniProt O94906), the “log2 mean competition ratio” value is reported as 0.717. With PRPF6 C513 (UniProt O94906) the “log2 mean competition ratio” value was -0.0735. In the case of PRDX3 C45 (UniProt P30048), the “log2 mean competition ratio” value is reported as -0.129. For PPIH C131 (UniProt O43447), the “log2 mean competition ratio” value was 0.022. In the case of PPP1CC;PPP1CA C140;(C140), the “log2 mean competition ratio” value is reported as -0.211. With PPP6R1 C172 (UniProt Q9UPN7) the “log2 mean competition ratio” value was -0.294. For POLR2B C161 (UniProt P30876), the “log2 mean competition ratio” value was 0.0933. PPP2CB C20 was tested, and the “log2 mean competition ratio” value was -0.206. PRMT9 C217 (UniProt Q6P2P2) was tested, and the “log2 mean competition ratio” value was 0.0325. POLR2H C30 (UniProt P52434) was tested, and the “log2 mean competition ratio” value was -0.121. In the case of PRR14L C1079 (UniProt Q5THK1), the “log2 mean competition ratio” value is reported as -0.123. For POP1 C358 (UniProt Q99575), the “log2 mean competition ratio” value was 0.0395. For PPME1 C238 (UniProt Q9Y570), the “log2 mean competition ratio” value was -0.31. PPP6R3 C172 (UniProt Q5H9R7) was tested, and the “log2 mean competition ratio” value was -0.165. In the case of PRPF8 C1228 (UniProt Q6P2Q9), the “log2 mean competition ratio” value is reported as -0.0492.

Same assay, conditions: 200 µM; treatment time: 4 h; cell line lysate: HEK293T
With PPP2R2D C268 (UniProt Q66LE6) the “log2 mean competition ratio” value was -0.0423. In the case of PPP1R37 C124 (UniProt O75864), the “log2 mean competition ratio” value is reported as 0.393. In the case of PRDM6 C426, the “log2 mean competition ratio” value is reported as -0.0152. For PRDM16 C113, the “log2 mean competition ratio” value was 0.0474. In the case of PRKDC C1742 (UniProt P78527), the “log2 mean competition ratio” value is reported as -0.0515. In the case of PRPF38A C116 (UniProt Q8NAV1), the “log2 mean competition ratio” value is reported as -0.123. For PREP C25, the “log2 mean competition ratio” value was -0.169. For PRKDC C4061 (UniProt P78527), the “log2 mean competition ratio” value was -0.0114. With PRDX4 C51 (UniProt Q13162) the “log2 mean competition ratio” value was 0.117. PRDX1 C173 (UniProt Q06830) was tested, and the “log2 mean competition ratio” value was -0.376. POLR3E C350 (UniProt Q9NVU0) was tested, and the “log2 mean competition ratio” value was 0.196. PPP1R3D C26 (UniProt O95685) was tested, and the “log2 mean competition ratio” value was 0.16. For POLR2B C945 (UniProt P30876), the “log2 mean competition ratio” value was -0.00172. In the case of PRMT7 C262 (UniProt Q9NVM4), the “log2 mean competition ratio” value is reported as -0.0286. With PRKAR2A C374 (UniProt P13861) the “log2 mean competition ratio” value was -0.138. For PPIF C203 (UniProt P30405), the “log2 mean competition ratio” value was 0.125. For POLR2A C1287, the “log2 mean competition ratio” value was 0.051. For PPP6R2 C49 (UniProt O75170), the “log2 mean competition ratio” value was -0.222. With POMT2 C21 (UniProt Q9UKY4) the “log2 mean competition ratio” value was 0.326. For PPP1R35 C142 (UniProt Q8TAP8), the “log2 mean competition ratio” value was 0.111. In the case of PPP4R1 C174 (UniProt Q8TF05), the “log2 mean competition ratio” value is reported as -0.217. In the case of PPM1G C164 (UniProt O15355), the “log2 mean competition ratio” value is reported as -0.537. PRC1 C80 (UniProt O43663) was tested, and the “log2 mean competition ratio” value was -0.166. With PRPF6 C604 (UniProt O94906) the “log2 mean competition ratio” value was -0.0599. For PRPF6 C513 (UniProt O94906), the “log2 mean competition ratio” value was 0.0163. For PRDX3 C45 (UniProt P30048), the “log2 mean competition ratio” value was 0.105. With PPIH C131 (UniProt O43447) the “log2 mean competition ratio” value was 0.298. PPP1CC;PPP1CA C140;(C140) was tested, and the “log2 mean competition ratio” value was -0.112. For PPP6R1 C172 (UniProt Q9UPN7), the “log2 mean competition ratio” value was 0.108. With POLR2B C161 (UniProt P30876) the “log2 mean competition ratio” value was 0.1. PPP2CB C20 was tested, and the “log2 mean competition ratio” value was 0.196. With PRMT9 C217 (UniProt Q6P2P2) the “log2 mean competition ratio” value was 0.0489. With POLR2H C30 (UniProt P52434) the “log2 mean competition ratio” value was -0.171. In the case of PRR14L C1079 (UniProt Q5THK1), the “log2 mean competition ratio” value is reported as -0.00812. POP1 C358 (UniProt Q99575) was tested, and the “log2 mean competition ratio” value was 0.0745. With PPME1 C238 (UniProt Q9Y570) the “log2 mean competition ratio” value was 0.081. With PPP6R3 C172 (UniProt Q5H9R7) the “log2 mean competition ratio” value was -0.448. With PRPF8 C1228 (UniProt Q6P2Q9) the “log2 mean competition ratio” value was 0.11.

What follows are targets tested with ClCC(=O)N[C@H]1CCCc2ccccc12 in the same assay as above. Settings: 50 µM; treatment time: 4 h; cell line lysate: HEK293T.
Method: as §1
In the case of PPP2R2D C268 (UniProt Q66LE6), the “log2 mean competition ratio” value is reported as 0.0674. For PPP1R37 C124 (UniProt O75864), the “log2 mean competition ratio” value was 0.0194. With PRDM6 C426 the “log2 mean competition ratio” value was 0.281. PRDM16 C113 was tested, and the “log2 mean competition ratio” value was 0.571. With PRKDC C1742 (UniProt P78527) the “log2 mean competition ratio” value was -0.217. For PRPF38A C116 (UniProt Q8NAV1), the “log2 mean competition ratio” value was -0.0415. For PREP C25, the “log2 mean competition ratio” value was 0.565. With PRKDC C4061 (UniProt P78527) the “log2 mean competition ratio” value was -0.0832. For PRDX4 C51 (UniProt Q13162), the “log2 mean competition ratio” value was 0.621. PRDX1 C173 (UniProt Q06830) was tested, and the “log2 mean competition ratio” value was 0.153. With POLR3E C350 (UniProt Q9NVU0) the “log2 mean competition ratio” value was 0.0139. In the case of PPP1R3D C26 (UniProt O95685), the “log2 mean competition ratio” value is reported as 0.0956. With POLR2B C945 (UniProt P30876) the “log2 mean competition ratio” value was 0.554. With PRMT7 C262 (UniProt Q9NVM4) the “log2 mean competition ratio” value was 0.087. With PRKAR2A C374 (UniProt P13861) the “log2 mean competition ratio” value was -0.0458. In the case of PPIF C203 (UniProt P30405), the “log2 mean competition ratio” value is reported as -0.263. For POLR2A C1287, the “log2 mean competition ratio” value was 0.365. In the case of PPP6R2 C49 (UniProt O75170), the “log2 mean competition ratio” value is reported as -0.269. In the case of POMT2 C21 (UniProt Q9UKY4), the “log2 mean competition ratio” value is reported as 0.0256. With PPP1R35 C142 (UniProt Q8TAP8) the “log2 mean competition ratio” value was -0.14. For PPP4R1 C174 (UniProt Q8TF05), the “log2 mean competition ratio” value was 0.132. For PPM1G C164 (UniProt O15355), the “log2 mean competition ratio” value was 0.516. PRC1 C80 (UniProt O43663) was tested, and the “log2 mean competition ratio” value was -0.109. In the case of PRPF6 C604 (UniProt O94906), the “log2 mean competition ratio” value is reported as 0.556. In the case of PRPF6 C513 (UniProt O94906), the “log2 mean competition ratio” value is reported as 0.268. PRDX3 C45 (UniProt P30048) was tested, and the “log2 mean competition ratio” value was -0.231. For PPIH C131 (UniProt O43447), the “log2 mean competition ratio” value was -0.0129. In the case of PPP1CC;PPP1CA C140;(C140), the “log2 mean competition ratio” value is reported as -0.201. With PPP6R1 C172 (UniProt Q9UPN7) the “log2 mean competition ratio” value was -0.891. With POLR2B C161 (UniProt P30876) the “log2 mean competition ratio” value was 0.0154. In the case of PPP2CB C20, the “log2 mean competition ratio” value is reported as -0.101. In the case of PRMT9 C217 (UniProt Q6P2P2), the “log2 mean competition ratio” value is reported as -0.161. With POLR2H C30 (UniProt P52434) the “log2 mean competition ratio” value was -0.513. In the case of PRR14L C1079 (UniProt Q5THK1), the “log2 mean competition ratio” value is reported as 0.0813. With POP1 C358 (UniProt Q99575) the “log2 mean competition ratio” value was -0.0492. In the case of PPME1 C238 (UniProt Q9Y570), the “log2 mean competition ratio” value is reported as -0.289. For PPP6R3 C172 (UniProt Q5H9R7), the “log2 mean competition ratio” value was -0.118. With PRPF8 C1228 (UniProt Q6P2Q9) the “log2 mean competition ratio” value was 0.402.
